From PMC13408954
No constants are given. Whether binding was seen depends on the method and setting. In cells and extracts the contact can be indirect. Here binding means that the protein was enriched with, or labelled near, the bait; the list need not be complete.

The chains behind the UniProt entries cited, without tags or fusion partners.
UniProt O43303: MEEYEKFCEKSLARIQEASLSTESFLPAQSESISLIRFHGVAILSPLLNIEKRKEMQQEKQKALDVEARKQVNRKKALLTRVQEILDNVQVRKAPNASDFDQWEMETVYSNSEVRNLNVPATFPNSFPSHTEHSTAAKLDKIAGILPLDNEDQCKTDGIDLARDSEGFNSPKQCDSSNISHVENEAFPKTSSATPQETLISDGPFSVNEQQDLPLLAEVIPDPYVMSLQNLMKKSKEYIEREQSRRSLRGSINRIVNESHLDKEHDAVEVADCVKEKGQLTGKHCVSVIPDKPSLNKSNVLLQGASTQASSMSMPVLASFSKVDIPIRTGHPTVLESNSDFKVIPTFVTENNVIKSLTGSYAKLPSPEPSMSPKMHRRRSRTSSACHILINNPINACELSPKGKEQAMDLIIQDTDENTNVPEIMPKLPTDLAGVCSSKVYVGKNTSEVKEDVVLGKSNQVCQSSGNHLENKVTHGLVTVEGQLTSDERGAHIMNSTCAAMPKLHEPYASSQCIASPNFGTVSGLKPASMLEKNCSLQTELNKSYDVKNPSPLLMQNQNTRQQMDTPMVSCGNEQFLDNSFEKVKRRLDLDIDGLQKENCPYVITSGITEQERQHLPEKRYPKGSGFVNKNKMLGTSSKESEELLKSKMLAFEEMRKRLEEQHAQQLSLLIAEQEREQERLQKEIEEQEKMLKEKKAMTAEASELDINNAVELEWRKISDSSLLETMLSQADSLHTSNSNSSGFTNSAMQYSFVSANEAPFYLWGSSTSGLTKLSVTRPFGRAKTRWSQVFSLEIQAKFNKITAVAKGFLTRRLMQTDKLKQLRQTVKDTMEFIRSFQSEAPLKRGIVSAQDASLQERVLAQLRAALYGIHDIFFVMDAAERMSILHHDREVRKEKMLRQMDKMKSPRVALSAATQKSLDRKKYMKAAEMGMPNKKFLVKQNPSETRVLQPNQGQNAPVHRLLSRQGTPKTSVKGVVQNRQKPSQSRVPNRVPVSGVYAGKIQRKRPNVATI
UniProt O95714: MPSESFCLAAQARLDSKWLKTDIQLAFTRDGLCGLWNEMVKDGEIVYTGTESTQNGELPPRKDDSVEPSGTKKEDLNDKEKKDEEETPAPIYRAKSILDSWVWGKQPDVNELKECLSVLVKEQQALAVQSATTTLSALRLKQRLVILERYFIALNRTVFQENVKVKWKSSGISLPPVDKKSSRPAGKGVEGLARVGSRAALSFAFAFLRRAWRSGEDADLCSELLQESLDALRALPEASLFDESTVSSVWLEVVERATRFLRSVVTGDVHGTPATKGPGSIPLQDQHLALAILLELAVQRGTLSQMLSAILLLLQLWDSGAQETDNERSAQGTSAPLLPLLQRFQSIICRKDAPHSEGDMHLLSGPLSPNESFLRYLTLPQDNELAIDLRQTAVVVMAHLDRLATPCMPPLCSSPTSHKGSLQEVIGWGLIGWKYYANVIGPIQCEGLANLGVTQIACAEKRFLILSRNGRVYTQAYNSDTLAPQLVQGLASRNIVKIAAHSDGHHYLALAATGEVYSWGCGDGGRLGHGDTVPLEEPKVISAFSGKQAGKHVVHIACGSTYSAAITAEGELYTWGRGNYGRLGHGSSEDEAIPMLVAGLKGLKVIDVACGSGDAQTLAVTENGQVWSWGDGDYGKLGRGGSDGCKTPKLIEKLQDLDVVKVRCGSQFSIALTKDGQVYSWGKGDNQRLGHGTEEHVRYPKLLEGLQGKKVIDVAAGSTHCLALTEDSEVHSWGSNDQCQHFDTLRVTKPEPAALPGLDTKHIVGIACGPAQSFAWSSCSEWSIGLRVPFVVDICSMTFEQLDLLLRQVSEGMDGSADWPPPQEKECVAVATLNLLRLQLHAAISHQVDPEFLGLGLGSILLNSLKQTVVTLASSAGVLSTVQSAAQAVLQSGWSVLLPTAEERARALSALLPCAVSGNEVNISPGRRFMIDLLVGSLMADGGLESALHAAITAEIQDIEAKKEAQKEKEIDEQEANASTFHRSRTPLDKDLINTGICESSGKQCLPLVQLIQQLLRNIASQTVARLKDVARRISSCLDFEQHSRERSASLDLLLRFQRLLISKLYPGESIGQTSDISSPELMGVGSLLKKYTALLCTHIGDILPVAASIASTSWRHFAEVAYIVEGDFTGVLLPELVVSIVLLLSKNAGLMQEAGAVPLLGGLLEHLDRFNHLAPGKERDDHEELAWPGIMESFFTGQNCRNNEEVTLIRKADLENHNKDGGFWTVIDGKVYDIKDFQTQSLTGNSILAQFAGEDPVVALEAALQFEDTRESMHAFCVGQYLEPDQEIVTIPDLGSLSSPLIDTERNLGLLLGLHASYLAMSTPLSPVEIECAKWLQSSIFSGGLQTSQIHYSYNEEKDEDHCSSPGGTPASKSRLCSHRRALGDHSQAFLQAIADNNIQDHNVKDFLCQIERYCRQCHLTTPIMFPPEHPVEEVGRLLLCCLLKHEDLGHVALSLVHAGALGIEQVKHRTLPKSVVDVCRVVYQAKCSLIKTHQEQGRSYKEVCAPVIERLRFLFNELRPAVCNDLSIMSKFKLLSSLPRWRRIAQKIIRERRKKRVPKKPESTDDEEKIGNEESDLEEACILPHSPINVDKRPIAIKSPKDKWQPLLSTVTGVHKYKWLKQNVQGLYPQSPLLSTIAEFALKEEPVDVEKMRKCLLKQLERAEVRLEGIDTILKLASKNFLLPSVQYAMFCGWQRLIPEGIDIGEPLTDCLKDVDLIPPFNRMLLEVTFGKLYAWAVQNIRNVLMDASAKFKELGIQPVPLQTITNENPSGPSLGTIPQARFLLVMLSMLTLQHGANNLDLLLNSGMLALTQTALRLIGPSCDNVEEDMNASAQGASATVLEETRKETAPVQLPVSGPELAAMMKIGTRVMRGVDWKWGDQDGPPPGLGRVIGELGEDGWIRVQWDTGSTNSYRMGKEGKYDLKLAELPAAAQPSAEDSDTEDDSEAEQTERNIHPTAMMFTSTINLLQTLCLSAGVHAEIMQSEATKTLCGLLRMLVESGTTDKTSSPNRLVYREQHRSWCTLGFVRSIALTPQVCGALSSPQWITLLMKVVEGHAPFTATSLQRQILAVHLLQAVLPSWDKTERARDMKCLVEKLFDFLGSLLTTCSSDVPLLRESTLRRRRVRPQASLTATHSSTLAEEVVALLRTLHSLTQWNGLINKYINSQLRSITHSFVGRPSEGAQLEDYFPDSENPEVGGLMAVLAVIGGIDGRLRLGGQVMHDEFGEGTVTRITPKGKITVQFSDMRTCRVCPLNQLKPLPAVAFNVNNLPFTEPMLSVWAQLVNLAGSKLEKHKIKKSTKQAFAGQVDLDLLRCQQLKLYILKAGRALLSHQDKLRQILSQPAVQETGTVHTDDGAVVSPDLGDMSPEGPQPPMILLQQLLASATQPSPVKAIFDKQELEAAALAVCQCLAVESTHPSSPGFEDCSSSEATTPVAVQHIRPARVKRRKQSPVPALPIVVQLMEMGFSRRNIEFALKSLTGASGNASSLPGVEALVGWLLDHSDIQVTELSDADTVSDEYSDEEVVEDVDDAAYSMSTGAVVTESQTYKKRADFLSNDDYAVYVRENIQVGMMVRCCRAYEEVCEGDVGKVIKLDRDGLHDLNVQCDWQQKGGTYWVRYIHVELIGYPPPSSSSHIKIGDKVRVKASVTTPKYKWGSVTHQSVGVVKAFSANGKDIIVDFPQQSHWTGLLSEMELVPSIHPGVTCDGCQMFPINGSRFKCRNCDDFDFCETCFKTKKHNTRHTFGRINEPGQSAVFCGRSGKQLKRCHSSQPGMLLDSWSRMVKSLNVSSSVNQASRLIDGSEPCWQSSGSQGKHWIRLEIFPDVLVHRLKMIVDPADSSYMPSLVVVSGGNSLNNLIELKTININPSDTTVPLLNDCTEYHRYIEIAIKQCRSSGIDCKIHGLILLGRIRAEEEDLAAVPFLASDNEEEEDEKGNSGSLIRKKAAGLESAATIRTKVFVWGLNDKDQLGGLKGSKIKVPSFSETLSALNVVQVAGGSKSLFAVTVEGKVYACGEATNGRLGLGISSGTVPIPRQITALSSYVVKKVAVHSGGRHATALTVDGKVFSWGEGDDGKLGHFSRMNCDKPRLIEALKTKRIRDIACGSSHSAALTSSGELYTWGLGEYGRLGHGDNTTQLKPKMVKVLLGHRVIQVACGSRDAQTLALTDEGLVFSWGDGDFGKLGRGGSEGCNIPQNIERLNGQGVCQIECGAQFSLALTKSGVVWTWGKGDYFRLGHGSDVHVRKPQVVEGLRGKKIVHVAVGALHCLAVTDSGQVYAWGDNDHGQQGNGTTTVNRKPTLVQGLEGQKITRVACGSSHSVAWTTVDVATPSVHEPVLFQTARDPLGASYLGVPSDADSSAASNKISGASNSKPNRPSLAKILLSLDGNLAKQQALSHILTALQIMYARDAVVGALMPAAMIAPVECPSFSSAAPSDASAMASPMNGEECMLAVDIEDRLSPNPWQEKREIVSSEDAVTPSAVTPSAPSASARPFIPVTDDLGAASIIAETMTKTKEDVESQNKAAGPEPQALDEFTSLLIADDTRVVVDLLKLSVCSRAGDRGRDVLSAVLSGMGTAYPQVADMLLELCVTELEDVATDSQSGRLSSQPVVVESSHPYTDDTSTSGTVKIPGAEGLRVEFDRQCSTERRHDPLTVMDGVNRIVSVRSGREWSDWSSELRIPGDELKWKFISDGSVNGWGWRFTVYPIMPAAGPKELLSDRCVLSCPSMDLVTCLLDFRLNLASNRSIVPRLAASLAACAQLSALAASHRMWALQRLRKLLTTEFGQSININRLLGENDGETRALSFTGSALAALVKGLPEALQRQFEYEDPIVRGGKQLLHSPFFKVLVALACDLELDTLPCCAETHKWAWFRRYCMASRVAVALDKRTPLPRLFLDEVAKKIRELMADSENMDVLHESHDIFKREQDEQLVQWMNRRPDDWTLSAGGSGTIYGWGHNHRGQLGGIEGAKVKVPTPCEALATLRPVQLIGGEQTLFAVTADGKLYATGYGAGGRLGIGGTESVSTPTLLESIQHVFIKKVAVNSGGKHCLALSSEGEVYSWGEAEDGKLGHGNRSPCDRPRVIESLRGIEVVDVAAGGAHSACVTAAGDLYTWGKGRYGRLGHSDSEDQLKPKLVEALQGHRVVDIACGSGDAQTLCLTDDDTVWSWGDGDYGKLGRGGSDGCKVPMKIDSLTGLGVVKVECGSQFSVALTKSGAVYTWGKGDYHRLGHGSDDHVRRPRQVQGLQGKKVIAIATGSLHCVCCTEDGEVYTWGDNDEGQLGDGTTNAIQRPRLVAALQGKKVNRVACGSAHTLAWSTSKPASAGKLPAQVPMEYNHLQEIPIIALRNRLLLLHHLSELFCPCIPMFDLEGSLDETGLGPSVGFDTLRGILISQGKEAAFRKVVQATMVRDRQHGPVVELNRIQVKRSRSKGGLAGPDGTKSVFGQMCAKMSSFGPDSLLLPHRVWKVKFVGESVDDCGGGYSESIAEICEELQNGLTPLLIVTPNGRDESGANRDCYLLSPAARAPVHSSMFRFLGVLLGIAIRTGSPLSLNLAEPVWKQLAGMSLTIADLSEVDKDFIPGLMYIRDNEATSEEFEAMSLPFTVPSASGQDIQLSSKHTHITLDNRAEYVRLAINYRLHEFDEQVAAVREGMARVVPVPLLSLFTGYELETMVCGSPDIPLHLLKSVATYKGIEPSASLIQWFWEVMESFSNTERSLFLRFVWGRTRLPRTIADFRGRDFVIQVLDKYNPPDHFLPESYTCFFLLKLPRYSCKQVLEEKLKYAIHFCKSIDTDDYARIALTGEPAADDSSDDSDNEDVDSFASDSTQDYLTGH

T1: LAP-EHD1 (UniProt Q9H4M9)
T1 sequence: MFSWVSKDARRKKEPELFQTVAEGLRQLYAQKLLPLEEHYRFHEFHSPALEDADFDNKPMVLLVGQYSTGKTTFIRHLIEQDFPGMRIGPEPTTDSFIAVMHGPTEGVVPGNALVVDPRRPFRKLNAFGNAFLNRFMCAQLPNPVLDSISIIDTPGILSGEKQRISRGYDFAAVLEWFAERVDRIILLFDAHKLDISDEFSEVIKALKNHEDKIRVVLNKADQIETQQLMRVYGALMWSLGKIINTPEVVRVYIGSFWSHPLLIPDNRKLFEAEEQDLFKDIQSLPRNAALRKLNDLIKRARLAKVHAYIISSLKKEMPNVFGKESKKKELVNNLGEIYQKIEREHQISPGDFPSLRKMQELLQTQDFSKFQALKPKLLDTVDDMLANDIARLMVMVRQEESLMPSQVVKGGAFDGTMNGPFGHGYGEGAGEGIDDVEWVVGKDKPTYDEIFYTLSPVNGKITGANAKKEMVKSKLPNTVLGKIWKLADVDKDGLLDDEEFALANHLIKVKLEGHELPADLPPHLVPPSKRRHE

B1: EHD1 (endogenous) (protein, UniProt Q9H4M9 1-534)
chain: T1 sequence

What was measured:
[1] = target: LAP-CP110 (UniProt O43303); experiment: affinity purification with mass spectrometry; 293T cells stably expressing LAP, LAP-CP110 or LAP-EHD1, serum-starved 3 h; lysis in 50 mM Tris-HCl pH 7.4, 150 mM NaCl, 1% Triton-X100, 10% glycerol; GFP-Trap resin, 2 h in a cold room; LC-MS/MS; n = 1 for LAP-EHD1 and LAP-CP110, n = 2 for LAP
[2] = target: T1, LAP-EHD1; experiment: as above

Row | Molecule | binding [1] | binding [2]
1 | CEP290 (from UniProt O15078 1-2479) | binds | 
2 | HERC2 (from UniProt O95714 1-4834) (enzyme) | binds | binds
3 | NEURL4 (from UniProt Q96JN8 1-1562) | binds | 
4 | B1 | binds | 
